The other results are listed elsewhere or left out.

By UniProt entry, the sequences of proteins in these tests, tags left out. Where a name states a change or a piece, a line headed by the entry shows the natural chain unless it says otherwise.
UniProt Q9Y3C6: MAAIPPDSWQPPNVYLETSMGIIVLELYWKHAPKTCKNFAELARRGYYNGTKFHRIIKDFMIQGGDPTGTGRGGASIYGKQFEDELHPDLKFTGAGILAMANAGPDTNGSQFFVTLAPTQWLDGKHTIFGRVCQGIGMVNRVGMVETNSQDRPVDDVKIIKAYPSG
UniProt O95602, whole entry: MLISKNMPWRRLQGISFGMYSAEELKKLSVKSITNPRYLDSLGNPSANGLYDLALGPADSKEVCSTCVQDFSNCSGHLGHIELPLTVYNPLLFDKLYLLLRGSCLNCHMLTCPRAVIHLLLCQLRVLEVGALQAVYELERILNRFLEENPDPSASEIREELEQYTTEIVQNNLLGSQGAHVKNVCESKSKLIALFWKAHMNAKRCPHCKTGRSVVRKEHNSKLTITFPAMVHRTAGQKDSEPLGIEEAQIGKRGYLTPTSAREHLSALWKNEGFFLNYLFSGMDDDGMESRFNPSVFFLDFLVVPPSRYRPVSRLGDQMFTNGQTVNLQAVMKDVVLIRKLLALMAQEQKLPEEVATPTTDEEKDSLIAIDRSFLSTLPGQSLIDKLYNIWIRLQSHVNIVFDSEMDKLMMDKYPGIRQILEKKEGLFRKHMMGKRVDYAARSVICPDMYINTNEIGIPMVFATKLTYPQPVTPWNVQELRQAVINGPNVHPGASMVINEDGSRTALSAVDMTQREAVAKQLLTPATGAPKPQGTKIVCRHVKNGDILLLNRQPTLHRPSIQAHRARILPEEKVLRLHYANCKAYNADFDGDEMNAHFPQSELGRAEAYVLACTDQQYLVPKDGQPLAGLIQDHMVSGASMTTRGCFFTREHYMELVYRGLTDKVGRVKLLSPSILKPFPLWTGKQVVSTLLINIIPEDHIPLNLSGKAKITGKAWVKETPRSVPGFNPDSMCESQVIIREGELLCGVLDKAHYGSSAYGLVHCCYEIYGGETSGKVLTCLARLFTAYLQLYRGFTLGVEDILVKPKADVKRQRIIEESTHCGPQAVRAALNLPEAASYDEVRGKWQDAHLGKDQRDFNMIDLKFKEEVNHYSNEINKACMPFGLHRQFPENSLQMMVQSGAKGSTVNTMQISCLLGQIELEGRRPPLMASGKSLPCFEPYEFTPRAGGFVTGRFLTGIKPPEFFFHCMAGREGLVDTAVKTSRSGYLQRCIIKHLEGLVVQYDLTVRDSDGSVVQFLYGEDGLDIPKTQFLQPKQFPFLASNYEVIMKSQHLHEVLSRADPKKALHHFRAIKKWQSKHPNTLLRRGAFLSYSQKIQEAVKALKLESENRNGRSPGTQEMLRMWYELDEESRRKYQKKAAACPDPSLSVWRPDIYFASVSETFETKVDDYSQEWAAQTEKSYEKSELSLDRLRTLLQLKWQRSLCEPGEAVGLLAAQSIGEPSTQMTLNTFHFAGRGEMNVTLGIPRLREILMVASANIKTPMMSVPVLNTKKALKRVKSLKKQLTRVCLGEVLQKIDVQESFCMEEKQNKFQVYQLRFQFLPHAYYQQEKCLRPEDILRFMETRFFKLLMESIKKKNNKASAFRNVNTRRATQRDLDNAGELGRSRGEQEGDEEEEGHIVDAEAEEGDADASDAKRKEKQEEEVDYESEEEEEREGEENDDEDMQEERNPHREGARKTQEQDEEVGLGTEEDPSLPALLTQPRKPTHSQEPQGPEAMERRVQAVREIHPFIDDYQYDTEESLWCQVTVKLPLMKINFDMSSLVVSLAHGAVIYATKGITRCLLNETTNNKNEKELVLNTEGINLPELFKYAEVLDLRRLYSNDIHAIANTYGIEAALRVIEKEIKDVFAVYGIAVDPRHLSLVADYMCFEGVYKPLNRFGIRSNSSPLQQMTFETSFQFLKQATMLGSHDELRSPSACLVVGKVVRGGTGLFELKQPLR
UniProt P62333, whole entry: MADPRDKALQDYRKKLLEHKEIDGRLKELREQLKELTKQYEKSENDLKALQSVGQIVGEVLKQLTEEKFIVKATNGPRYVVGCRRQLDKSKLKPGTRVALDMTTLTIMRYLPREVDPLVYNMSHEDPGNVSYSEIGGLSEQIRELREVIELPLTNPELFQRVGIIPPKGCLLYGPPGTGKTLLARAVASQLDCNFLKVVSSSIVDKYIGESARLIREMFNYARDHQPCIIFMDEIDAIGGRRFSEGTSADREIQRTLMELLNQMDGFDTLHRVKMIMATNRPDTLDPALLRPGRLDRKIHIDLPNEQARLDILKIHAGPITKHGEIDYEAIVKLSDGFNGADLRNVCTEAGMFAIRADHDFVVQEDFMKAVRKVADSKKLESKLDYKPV
UniProt P42785: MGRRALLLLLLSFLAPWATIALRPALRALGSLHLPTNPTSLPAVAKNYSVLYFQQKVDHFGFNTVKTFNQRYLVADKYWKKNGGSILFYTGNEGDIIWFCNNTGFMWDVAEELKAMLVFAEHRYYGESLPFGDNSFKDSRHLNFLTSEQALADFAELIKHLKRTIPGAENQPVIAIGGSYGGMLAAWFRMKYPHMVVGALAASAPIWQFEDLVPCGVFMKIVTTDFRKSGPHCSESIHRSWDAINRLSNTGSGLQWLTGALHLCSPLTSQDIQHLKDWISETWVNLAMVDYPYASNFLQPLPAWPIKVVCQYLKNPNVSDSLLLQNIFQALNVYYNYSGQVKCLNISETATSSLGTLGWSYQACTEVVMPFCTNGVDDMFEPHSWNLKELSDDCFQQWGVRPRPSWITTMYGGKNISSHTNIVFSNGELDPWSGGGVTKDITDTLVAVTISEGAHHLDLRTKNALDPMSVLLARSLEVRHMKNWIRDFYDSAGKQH
UniProt Q9H2H8: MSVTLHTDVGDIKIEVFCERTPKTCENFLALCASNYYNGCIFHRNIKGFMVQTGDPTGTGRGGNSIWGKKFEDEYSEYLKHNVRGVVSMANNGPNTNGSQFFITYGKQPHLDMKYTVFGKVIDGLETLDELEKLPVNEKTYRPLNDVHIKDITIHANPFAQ
UniProt Q13200: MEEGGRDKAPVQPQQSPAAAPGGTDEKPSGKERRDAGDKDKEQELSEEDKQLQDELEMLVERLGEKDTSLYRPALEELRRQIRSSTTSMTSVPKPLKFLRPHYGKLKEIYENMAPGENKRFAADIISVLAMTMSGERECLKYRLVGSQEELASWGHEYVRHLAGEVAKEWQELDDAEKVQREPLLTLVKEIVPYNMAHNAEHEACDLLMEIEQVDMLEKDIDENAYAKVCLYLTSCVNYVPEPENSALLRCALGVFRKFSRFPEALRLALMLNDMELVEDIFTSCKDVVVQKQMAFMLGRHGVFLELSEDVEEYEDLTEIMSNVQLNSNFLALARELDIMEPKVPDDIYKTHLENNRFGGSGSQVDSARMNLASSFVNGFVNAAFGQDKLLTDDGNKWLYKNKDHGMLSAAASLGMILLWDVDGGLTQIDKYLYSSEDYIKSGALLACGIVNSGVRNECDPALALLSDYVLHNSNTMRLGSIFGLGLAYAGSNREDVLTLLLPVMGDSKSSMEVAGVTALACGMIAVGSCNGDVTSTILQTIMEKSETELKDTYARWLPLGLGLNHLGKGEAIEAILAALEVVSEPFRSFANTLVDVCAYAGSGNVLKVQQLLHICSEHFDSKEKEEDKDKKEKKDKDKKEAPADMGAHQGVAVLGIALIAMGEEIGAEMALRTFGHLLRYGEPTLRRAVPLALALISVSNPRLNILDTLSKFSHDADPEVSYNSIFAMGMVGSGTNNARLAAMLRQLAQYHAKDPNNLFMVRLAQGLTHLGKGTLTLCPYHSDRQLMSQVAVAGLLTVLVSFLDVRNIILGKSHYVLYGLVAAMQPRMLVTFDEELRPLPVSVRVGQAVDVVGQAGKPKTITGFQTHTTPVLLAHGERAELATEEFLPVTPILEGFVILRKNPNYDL
UniProt P23284: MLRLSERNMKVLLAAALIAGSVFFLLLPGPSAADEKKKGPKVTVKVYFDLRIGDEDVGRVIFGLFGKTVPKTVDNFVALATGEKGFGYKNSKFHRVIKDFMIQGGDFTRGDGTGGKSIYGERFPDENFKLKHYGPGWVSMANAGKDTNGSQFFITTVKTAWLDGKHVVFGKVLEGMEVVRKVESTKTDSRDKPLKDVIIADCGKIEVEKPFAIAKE
UniProt O60256: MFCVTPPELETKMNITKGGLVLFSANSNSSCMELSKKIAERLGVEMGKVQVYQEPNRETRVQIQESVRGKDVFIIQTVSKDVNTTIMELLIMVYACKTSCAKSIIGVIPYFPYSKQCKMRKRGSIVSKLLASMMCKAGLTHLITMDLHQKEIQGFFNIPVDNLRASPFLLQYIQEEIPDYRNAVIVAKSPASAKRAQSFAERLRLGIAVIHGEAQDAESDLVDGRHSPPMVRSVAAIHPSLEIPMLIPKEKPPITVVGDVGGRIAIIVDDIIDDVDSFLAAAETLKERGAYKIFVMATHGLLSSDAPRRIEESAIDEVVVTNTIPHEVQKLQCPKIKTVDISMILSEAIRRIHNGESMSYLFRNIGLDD
UniProt O43447: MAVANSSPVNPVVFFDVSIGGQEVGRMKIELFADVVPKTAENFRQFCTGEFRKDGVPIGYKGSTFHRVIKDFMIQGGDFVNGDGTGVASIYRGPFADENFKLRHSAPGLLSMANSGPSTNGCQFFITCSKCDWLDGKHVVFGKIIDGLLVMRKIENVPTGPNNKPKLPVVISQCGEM
UniProt Q9NUX5: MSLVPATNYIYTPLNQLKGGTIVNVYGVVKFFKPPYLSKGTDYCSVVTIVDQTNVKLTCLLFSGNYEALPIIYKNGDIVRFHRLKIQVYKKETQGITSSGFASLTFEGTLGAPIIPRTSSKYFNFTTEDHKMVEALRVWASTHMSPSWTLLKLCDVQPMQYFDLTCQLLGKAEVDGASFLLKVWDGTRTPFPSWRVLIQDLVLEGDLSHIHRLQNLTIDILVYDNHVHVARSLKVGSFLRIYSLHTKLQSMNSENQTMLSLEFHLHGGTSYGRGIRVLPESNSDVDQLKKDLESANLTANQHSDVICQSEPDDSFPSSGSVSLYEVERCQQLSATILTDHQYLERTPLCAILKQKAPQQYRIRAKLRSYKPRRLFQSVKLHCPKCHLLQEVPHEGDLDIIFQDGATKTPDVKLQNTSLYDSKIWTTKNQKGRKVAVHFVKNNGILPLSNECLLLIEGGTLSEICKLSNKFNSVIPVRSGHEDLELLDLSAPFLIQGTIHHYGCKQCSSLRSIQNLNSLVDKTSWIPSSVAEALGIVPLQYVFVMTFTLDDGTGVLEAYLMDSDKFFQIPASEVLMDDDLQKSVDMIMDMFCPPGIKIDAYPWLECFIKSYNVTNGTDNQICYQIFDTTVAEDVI
UniProt Q96BW5: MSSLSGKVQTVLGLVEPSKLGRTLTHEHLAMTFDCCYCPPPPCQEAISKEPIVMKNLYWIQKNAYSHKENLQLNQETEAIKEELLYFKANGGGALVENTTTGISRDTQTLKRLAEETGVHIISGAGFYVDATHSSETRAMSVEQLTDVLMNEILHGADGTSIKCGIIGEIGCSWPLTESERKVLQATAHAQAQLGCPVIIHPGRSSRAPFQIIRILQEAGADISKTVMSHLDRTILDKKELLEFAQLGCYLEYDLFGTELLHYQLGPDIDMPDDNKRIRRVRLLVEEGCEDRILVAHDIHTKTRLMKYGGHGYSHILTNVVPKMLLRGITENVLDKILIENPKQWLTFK
UniProt Q05209: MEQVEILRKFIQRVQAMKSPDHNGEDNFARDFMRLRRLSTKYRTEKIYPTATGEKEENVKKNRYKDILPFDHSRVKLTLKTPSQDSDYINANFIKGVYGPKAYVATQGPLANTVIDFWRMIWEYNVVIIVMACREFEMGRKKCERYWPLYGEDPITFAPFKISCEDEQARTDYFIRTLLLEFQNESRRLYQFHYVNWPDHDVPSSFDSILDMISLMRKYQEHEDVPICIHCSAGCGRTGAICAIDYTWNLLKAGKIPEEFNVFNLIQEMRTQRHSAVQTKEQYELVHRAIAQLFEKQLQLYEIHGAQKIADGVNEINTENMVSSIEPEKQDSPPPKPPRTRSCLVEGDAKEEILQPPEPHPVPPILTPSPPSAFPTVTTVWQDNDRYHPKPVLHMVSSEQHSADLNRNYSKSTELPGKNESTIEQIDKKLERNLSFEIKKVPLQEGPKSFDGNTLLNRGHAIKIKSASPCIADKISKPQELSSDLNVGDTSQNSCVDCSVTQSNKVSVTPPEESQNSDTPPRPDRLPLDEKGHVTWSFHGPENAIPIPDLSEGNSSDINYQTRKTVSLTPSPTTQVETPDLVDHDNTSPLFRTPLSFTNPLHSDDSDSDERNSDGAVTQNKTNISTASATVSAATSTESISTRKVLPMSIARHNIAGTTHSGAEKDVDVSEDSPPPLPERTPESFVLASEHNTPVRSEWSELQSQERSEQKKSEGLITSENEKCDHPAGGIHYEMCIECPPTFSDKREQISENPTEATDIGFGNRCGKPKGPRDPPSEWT
UniProt Q15185: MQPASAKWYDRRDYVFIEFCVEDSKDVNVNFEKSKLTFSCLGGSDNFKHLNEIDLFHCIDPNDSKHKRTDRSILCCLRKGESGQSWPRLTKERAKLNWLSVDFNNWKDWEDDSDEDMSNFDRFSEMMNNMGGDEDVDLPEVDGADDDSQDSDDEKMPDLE

Compound in this experiment: COc1ccc(Cn2ccc3cc(C)c(C(=O)NO)cc32)cc1
Briefly: dose-dependent thermal stabilisation call (2D-TPP, DLPTP, 10% FDR) (binary (1 = stabilised)); higher = stabilised by the compound. Particulars: system: HL-60 intact cells; concentration range 0.04-10 µM. How it is done:
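2D thermal proteome profiling in intact HL-60 cells treated with BRD-3811 (0, 0.04, 0.29, 2, 10 uM) for 90 min at 37 C, then heated 3 min at one of 12 temperatures (42-63.9 C). Soluble protein was quantified by TMT10 MS. The value is the DLPTP call of the paper: dose-dependent thermal stabilisation over all temperatures at 10% FDR (F-test of a dose-response against a flat model); one experiment, one call per tested protein.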
With PPIL1 (UniProt Q9Y3C6), the “dose-dependent thermal stabilisation call” value was inactive: 0.

As to PSMD9 (UniProt O00233), the “dose-dependent thermal stabilisation call” value was inactive: 0.

Turning to POMP (UniProt Q9Y244), the “dose-dependent thermal stabilisation call” value is inactive: 0.

As to POM121 (UniProt Q96HA1), the “dose-dependent thermal stabilisation call” value was inactive: 0.

On to POLR1E (UniProt Q9GZS1), for which the “dose-dependent thermal stabilisation call” value is inactive: 0.

Turning to PPP1R13L (UniProt Q8WUF5), the “dose-dependent thermal stabilisation call” value was inactive: 0.

Take POLR1A (UniProt O95602): the “dose-dependent thermal stabilisation call” value was inactive: 0.

Regarding PRR3 (UniProt P79522), the “dose-dependent thermal stabilisation call” value is inactive: 0.

Consider PSMC6 (UniProt P62333), for which the “dose-dependent thermal stabilisation call” value was inactive: 0.

For the target PNPLA6 (UniProt Q8IY17), the “dose-dependent thermal stabilisation call” value was inactive: 0.

For the target PRMT5 (UniProt O14744), the “dose-dependent thermal stabilisation call” value was inactive: 0.

On to PRCP (UniProt P42785), for which the “dose-dependent thermal stabilisation call” value was inactive: 0.

In the case of PPP2R2A (UniProt P63151), the “dose-dependent thermal stabilisation call” value was inactive: 0.

Consider PSMD14 (UniProt O00487), for which the “dose-dependent thermal stabilisation call” value is inactive: 0.

Regarding PRMT1 (UniProt Q99873), the “dose-dependent thermal stabilisation call” value was inactive: 0.

PPIL3 (UniProt Q9H2H8): the “dose-dependent thermal stabilisation call” value is inactive: 0.

Consider PSMD2 (UniProt Q13200), for which the “dose-dependent thermal stabilisation call” value is inactive: 0.

As for PNPLA4 (UniProt P41247), the “dose-dependent thermal stabilisation call” value is inactive: 0.

For the target PTGR1 (UniProt Q14914), the “dose-dependent thermal stabilisation call” value was inactive: 0.

In the case of PPIB (UniProt P23284), the “dose-dependent thermal stabilisation call” value is inactive: 0.

As to PRPSAP2 (UniProt O60256), the “dose-dependent thermal stabilisation call” value was inactive: 0.

For PSMG2 (UniProt Q969U7), the “dose-dependent thermal stabilisation call” value was inactive: 0.

PPM1F (UniProt P49593): the “dose-dependent thermal stabilisation call” value was inactive: 0.

Turning to POLE4 (UniProt Q9NR33), the “dose-dependent thermal stabilisation call” value was inactive: 0.

For the target POGZ (UniProt Q7Z3K3), the “dose-dependent thermal stabilisation call” value was inactive: 0.

As for PPIH (UniProt O43447), the “dose-dependent thermal stabilisation call” value is inactive: 0.

For POT1 (UniProt Q9NUX5), the “dose-dependent thermal stabilisation call” value is inactive: 0.

For PTER (UniProt Q96BW5), the “dose-dependent thermal stabilisation call” value is inactive: 0.

For the target PTPN12 (UniProt Q05209), the “dose-dependent thermal stabilisation call” value is inactive: 0.

Consider PSTPIP1 (UniProt O43586), for which the “dose-dependent thermal stabilisation call” value is inactive: 0.

Regarding POLD1 (UniProt P28340), the “dose-dependent thermal stabilisation call” value was inactive: 0.

On to PSMB3 (UniProt P49720), for which the “dose-dependent thermal stabilisation call” value was inactive: 0.

As to POU2F1 (UniProt P14859), the “dose-dependent thermal stabilisation call” value was inactive: 0.

Take PTGES3 (UniProt Q15185): the “dose-dependent thermal stabilisation call” value is inactive: 0.

Turning to PTBP1 (UniProt P26599), the “dose-dependent thermal stabilisation call” value is inactive: 0.

In the case of PPIA (UniProt P62937), the “dose-dependent thermal stabilisation call” value is inactive: 0.

(Values after the supplement of paper PMC7666118.)
